From PubChem BioAssay AID493027 (The Scripps Research Institute Molecular Screening Center, 2011)
“And” between values parts separate entries of the source, which are not always exact repeats. Identical values can stand only once. Hit rate of the full screen: of about 2,000 compounds, about 45 (2%) were called active.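 How the source made its calls: active means inhibition above the screen-wide mean inhibition plus 3 SD (cut at about 44% in these data); inactive means the rest.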 The list shows a part of the results.

Protein sequences, listed by entry. Tags and fused reporters are not part of them. Lines headed by an entry give the natural chain unless they say otherwise; changes in a name come on top.
UniProt O60240: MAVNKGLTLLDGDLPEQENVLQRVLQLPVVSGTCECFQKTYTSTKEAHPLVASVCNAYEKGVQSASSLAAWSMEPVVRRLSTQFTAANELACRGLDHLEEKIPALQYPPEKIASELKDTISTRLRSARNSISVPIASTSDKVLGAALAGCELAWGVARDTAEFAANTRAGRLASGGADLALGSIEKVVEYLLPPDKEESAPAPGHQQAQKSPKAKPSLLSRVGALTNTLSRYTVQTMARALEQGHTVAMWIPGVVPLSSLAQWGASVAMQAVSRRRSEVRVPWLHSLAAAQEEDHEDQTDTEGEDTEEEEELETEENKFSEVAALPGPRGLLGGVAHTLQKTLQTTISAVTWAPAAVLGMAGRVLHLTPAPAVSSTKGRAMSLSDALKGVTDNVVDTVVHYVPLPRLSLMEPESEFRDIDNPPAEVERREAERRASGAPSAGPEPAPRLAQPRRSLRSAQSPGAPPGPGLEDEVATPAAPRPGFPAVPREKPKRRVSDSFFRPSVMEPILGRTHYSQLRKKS
UniProt Q8WTS1: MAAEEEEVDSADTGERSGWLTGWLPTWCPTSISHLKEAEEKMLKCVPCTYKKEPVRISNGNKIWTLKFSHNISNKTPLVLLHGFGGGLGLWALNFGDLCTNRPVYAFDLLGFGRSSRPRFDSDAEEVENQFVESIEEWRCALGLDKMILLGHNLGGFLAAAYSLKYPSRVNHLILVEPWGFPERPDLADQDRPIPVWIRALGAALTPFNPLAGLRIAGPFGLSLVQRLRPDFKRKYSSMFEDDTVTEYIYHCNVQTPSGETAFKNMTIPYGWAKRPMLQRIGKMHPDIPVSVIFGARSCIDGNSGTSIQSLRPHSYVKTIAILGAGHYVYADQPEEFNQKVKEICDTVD

The compounds below were run against Perilipin-1 (Homo sapiens) + 1-acylglycerol-3-phosphate O-acyltransferase ABHD5 (Homo sapiens) (UniProt O60240+Q8WTS1) (assay: ABHD5-PLIN1 interaction inhibitors, pilot screen, cell lysate, split luciferase complementation, luminescence, NIH validation set (AID 493027;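 further: 0% = DMSO wells with the 100% control not disclosed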)). Details: split G. princeps luciferase complementation, 4 h; at 7.9 µM, stronger effect = higher value.

inhibition, active:
O=C(Nc1ccc(Oc2c(F)c(F)c(F)c(F)c2F)cc1)OC1CCN2Cc3ccccc3N=C12 (configuration not stated) 71.9%, COc1cccc(/C=C/C(=O)c2c(O)cc(C)oc2=O)c1O 47.8%

inhibition, inactive:
COc1cccc(OC2OC3COC(C)(C)OC3C(O)C2NC(C)=O)c1 (configuration not stated) -10.2%, N/C(=N\OC(=O)c1ccc(Br)o1)c1ccccn1 -7.68%, Cn1c(=O)[nH]c(=O)c2c1nc(Br)n2CCCO -6.24%, COC(=O)c1ccc(=O)n(Cc2ccco2)c1 12.2%, O=C(Nc1cccc(Oc2c(F)c(F)c(F)c(F)c2F)c1)N1C[C@@H]2C[C@@H](C1)c1cccc(=O)n1C2 9%, C=C(C)[C@@H]1CC=C(CN2CCC(N3CCC(C(=O)N4CCCC4)CC3)CC2)CC1 -11.8%, COc1cc2c(cc1NCc1ccc3c(c1)OCO3)oc1ccccc12 0.96%, COc1ccc(-c2noc(CCc3ccccc3)n2)cc1 -13.1%, CC(C)C[C@H](NC(=O)[C@@H]1Cc2ccccc2CN1C(=O)OC(C)(C)C)C(=O)NCC1CCC(C(=O)O)CC1 (some centres not stated) -6.8%, Oc1[nH]c2ccccc2c1C1=NCCCC1 -6.01%, Cc1nc2ccccn2c(=O)c1CCN1CCC(C(=O)c2ccc(F)cc2)CC1 -8.54%, CCCn1c(=O)c2[nH]c(C3CCCC3)nc2n(CCC)c1=O -3.52%, CCOC(=O)n1c(=O)oc2ccccc21 -9.27%, O=C(CCNNC(=O)c1ccncc1)NCc1ccccc1 -2.76%, CCNC(=S)Nc1ccc(OC(F)(F)F)cc1 -3.96%, COc1cc(C(=O)Nc2cccc(-c3nnc(-c4ccco4)o3)c2)ccc1OC(C)=O 6.89%, O=c1cc(-c2ccc3c(c2)OCCO3)oc2ccc(Cl)cc12 -7.19%, NC(=O)c1cnccn1 -2.43%, CN1[C@@H]2CC(OC(=O)[C@H](CO)c3ccccc3)C[C@H]1[C@@H]1O[C@@H]12 (some centres not stated) -1.86% and 1.03%, O=C(NCc1ccc(N2CCCC2=O)cc1)c1ccc(F)cc1 6.92%, CC(=O)O[C@H]1CC[C@H]2[C@@H]3CCc4cc(O)ccc4[C@H]3CC[C@]12C 6.73%, CCCCCCCC(=O)OCC(O)CO (configuration not stated) -1.8%, OC12CCCCC1C(c1ccc3c(c1)OCO3)N(Cc1cccc(F)c1)CC2 (configuration not stated) -3.42%, CC(=O)NCCCC(=O)NC(CCC(=O)OCc1ccccc1)C(=O)OCc1ccccc1 (configuration not stated) -3.23%, O=c1n(CCCN2CCN(c3cccc(Cl)c3)CC2)nc2ccccn12 -2.6%, CC12CCC(C(=O)NNc3ccccc3)(C(=O)C1=O)C2(C)C (configuration not stated) 3.25%, Cc1cc(O)c2/c(=N\N)c(-c3csc(C)n3)coc2c1 5.2%, CC1(C)S[C@@H]2[C@H](NC(=O)[C@H](N)c3ccccc3)C(=O)N2[C@H]1C(=O)O -3.49% and -7.07%, CCN(CC)c1ccc(C2=NNC(=O)CC2C)cc1[N+](=O)[O-] (configuration not stated) -6.85%, C[C@@H]1C[C@H](Nc2ccccc2)c2ccccc2N1C(=O)c1cccnc1 -8.75%, O=[N+]([O-])c1cc(/C=N/n2cnnc2)ccc1N1CCCC1 3.29%, COc1ccc2cc([C@H](C)C(=O)O)ccc2c1 -2.18%, Cc1ncc([N+](=O)[O-])n1CC(C)O (configuration not stated) -5.37%, COc1ccc(-c2cc3cc(OC)c(OC)cc3c(C)n2)cc1 2.61%, C/C=C(/C(=C/C)c1ccc(O)cc1)c1ccc(O)cc1 22.1%, CCOc1ccc(C(=O)NCC2(c3ccccc3)CCOCC2)cc1 -2.44%, COc1ccc(-c2[nH]ncc2CN(CCO)Cc2cccs2)c(F)c1 -7.46%, CCOC(=O)C1CCCN(Cc2nc(Cc3cccc(F)c3)no2)C1 (configuration not stated) -4.38%, N#C/C(=C\c1ccc(O)c(O)c1)C(=O)NCCCc1ccccc1 37.9%, CCNCCC(CCC(C)C)c1ccc2c(c1)OCO2 (configuration not stated) 5.59%, C/C(NC(=O)c1cccs1)=C1\C(=O)C[C@@H]2[C@H]1C2(C)C 4.46%, O=P(c1ccccc1)(c1ccccc1)c1nc(-c2ccc(Cl)cc2)oc1N1CCOCC1 2.59%, Cc1cc(/C=N/O)c(C)n1-c1ccc(Br)cc1 6.12%, O=C(O)c1ccccc1O -6.1%, CCOc1ccc2nc(S(N)(=O)=O)sc2c1 -10.4%, Nc1ccc(N)c(C(=O)O)c1 -12.6%, CN1CCCN(C(c2ccccc2)c2ccc(Cl)cc2)CC1 (configuration not stated) 6.39%, COC(=O)C1[C@H]2C(=O)N(Cc3cccs3)C[C@]23C=C[C@H]1O3 (some centres not stated) -5.63%, CC(C)OC(=O)C(C)(C)Oc1ccc(C(=O)c2ccc(Cl)cc2)cc1 -11.3%, CC(C)NC(=O)C1(c2ccccc2)CCOCC1 0.25%, COc1cc(C2C(C(C)=O)=C(O)C(=O)N2c2ccc(C)cc2)ccc1O (configuration not stated) -3.68%, CC(C)=CCC/C(C)=C/CC/C(C)=N/O -4.49%, O=C(Nc1ccccc1)OCC1CCCN2CCCCC12 (configuration not stated) -5.9%, CC1(C)NC(C(=O)O)Cc2c1[nH]c1ccccc21 (configuration not stated) -8.61%, COc1ccc2cc(-c3nc4ccccc4n3C)c(=O)oc2c1 -4.01%, COC(=O)CCC(=O)CN -0.84%, CCc1cc(=O)oc2cc(C)c(CN3CCCC(C)C3)c(O)c12 (configuration not stated) 13.8%, CC(=O)c1c(C)[nH]c(C(=O)OCc2ccccc2)c1C -7.75%, COc1ccccc1/C=C/C(=O)c1c2c(c(C)[nH]c1=O)CCCC2 28.8%, CCN1C(=O)C(CC(=O)Nc2ccc(F)cc2)N(Cc2ccc3c(c2)OCO3)C1=S (configuration not stated) 4.73%
